Experimental data from patent publication CN117024592A.
No constants are given. Whether binding was seen depends on the method and setting. Some binding calls cover weakened binding; strength is not graded here. For some assays here: Sequences can lack the tags named with a protein.

What was measured:
[1] = biological target: T1, B7H3-His重组蛋白 (human) (UniProt Q5ZPR3); assay: SPR (Biacore), B7H3-His amine-coupled to CM5 chip, antibody as analyte
T1 sequence (looked up): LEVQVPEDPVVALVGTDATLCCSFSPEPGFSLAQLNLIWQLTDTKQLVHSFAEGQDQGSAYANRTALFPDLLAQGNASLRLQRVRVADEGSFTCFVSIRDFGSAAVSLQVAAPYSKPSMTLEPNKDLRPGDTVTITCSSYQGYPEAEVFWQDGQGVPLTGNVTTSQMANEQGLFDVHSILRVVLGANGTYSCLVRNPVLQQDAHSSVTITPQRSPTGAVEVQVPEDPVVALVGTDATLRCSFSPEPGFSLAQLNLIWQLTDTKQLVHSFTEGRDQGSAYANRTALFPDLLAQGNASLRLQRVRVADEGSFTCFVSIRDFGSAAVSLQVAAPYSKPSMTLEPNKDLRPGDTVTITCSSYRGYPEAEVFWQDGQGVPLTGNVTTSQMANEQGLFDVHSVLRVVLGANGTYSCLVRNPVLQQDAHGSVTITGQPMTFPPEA

[2] = biological target: T2, 人源B7H3(细胞表面表达) (human) (UniProt Q5ZPR3); assay: flow cytometry on CHO cells stably expressing B7H3
T2 sequence (looked up): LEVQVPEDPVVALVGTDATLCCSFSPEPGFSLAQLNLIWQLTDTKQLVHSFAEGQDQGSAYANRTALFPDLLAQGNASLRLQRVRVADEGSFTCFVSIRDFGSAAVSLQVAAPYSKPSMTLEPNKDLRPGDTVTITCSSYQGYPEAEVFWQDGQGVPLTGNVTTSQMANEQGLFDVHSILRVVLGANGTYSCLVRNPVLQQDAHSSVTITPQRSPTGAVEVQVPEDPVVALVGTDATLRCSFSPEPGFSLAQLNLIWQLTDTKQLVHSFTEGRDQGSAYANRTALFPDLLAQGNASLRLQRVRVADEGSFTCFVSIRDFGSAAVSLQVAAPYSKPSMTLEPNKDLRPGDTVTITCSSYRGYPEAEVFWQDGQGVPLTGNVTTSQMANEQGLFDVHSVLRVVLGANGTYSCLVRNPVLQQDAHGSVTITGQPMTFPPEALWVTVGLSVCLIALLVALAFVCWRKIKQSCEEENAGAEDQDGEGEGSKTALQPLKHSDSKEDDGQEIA

B1: 人源化单抗huJ65-1 (antibody, V domains shown)
VH: EVQLVESGGGLVQPGGSLRLSCAASGFTFSSHGMHWVRQAPGKGLEWVAVISGGGRYSYYADSVKGRFTISRDNAKNSLYLQMNSLRAEDTAVYYCARHWDGYLDYWGQGTLVTVSS
VL: DIQMTQSPSSLSASVGDRVTITCRASQNIYSYLAWYQQKPGKAPKLLIYNAKTLTEGVPSRFSGSGSGTDFTLTISSLQPEDFATYYCQQHHYGPPPYTFGQGTKVEIK
In the case of B1, the binding [1] is reported as “binds” and the binding [2] is reported as “binds”.
